Results are given in words; binding and its absence hold for the method and conditions named. In cells and extracts the contact can be indirect. Some results given as binding are weak or reduced against the parent protein; the word gives no strength.
Target: recombinant SBP-AR (rSBP-AR) (human) (UniProt P10275)
Assay: pull-down; in vitro translated rSBP-AR incubated with 200 µg cytosolic extract of AD or AS LNCaP cells and 25 µl streptavidin beads, with vehicle (ethanol) or 100 nM R1881; eluates blotted for COPE and COPD, compared with samples without rSBP-AR

The chains behind the UniProt entries cited, without tags or fusion partners.
UniProt P10275: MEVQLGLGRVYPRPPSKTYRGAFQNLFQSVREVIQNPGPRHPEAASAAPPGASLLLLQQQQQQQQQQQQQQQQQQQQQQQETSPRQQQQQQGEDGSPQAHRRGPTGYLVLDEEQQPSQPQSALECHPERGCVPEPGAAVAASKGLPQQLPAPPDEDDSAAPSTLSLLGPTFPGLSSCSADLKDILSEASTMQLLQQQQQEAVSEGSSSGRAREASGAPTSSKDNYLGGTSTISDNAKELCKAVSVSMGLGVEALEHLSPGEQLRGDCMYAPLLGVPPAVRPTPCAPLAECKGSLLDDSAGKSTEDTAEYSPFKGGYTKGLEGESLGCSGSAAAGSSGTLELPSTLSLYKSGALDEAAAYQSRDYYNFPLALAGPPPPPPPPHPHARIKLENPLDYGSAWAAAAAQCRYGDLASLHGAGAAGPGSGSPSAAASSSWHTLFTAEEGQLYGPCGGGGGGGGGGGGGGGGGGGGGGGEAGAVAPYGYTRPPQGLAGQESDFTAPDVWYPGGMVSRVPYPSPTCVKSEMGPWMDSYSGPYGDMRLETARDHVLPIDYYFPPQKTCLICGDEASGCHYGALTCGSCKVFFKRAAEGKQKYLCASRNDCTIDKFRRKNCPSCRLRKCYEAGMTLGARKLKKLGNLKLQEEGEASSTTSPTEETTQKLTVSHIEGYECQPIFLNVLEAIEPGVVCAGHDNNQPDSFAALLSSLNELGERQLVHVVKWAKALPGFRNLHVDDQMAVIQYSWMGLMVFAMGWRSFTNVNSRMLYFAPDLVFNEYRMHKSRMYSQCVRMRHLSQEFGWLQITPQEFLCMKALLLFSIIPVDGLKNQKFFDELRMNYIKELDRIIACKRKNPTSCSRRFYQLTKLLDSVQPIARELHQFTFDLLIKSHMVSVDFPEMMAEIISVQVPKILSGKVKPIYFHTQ

B1: COPD subunit of the COPI complex (protein, UniProt P48444 1-511)
chain: MVLLAAAVCTKAGKAIVSRQFVEMTRTRIEGLLAAFPKLMNTGKQHTFVETESVRYVYQPMEKLYMVLITTKNSNILEDLETLRLFSRVIPEYCRALEENEISEHCFDLIFAFDEIVALGYRENVNLAQIRTFTEMDSHEEKVFRAVRETQEREAKAEMRRKAKELQQARRDAERQGKKAPGFGGFGSSAVSGGSTAAMITETIIETDKPKVAPAPARPSGPSKALKLGAKGKEVDNFVDKLKSEGETIMSSSMGKRTSEATKMHAPPINMESVHMKIEEKITLTCGRDGGLQNMELHGMIMLRISDDKYGRIRLHVENEDKKGVQLQTHPNVDKKLFTAESLIGLKNPEKSFPVNSDVGVLKWRLQTTEESFIPLTINCWPSESGNGCDVNIEYELQEDNLELNDVVITIPLPSGVGAPVIGEIDGEYRHDSRRNTLEWCLPVIDAKNKSGSLEFSIAGQPNDFFPVQVSFVSKKNYCNIQVTKVTQVDGNSPVRFSTETTFLVDKYEIL
  binding: binds
